PubChem BioAssay AID602196 | INSERM | 2012

- Purpose: 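Genes whose knock-down alters cisplatin killing of lung cancer cells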
- Cells: human A549 lung cancer cells
- Reagents: siRNA pair against human genes
- Timing: 48 h transfection before cisplatin; time from cisplatin to read-out not stated
- Challenge: cisplatin at a dose killing half of control-siRNA cells; exact dose and duration not given
- Measurement: 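Shift in cisplatin death relative to control siRNA, from -50 (all cells die) to +50 (no cells die); siRNAs harmful on their own scored 0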
- Reading the numbers: two-siRNA summed score (-2 to +2): higher = both siRNAs protect from cisplatin killing; -2 means both sensitise; mean protection from cisplatin (shift in death): higher = protection from cisplatin killing
- Active means: 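Each siRNA scores 0 if harmful alone by LDH or WST-1, otherwise +1 if it reduces and -1 if it increases cisplatin killing; a gene is active when both siRNAs agree (sum +2 or -2)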
- Calls: active = both siRNAs shift cisplatin killing the same way; inactive = no consistent shift, or siRNA harmful alone
The whole screen tested about 23,000 reagents; shown is a random part of them. Over the whole deposit, 455 (2%) were called active. 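Active includes both protection and sensitisation; some change values fall well beyond the stated -50 to +50 range.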 Further read-outs or replicates are left out here. Not given: the amount of reagent.

The opening 2 records as a preview:
{"Gene": "GPAA1", "two-siRNA summed score (-2 to +2)": 0, "mean protection from cisplatin (shift in death) (%)": 0.1, "Call": "inactive"}
{"Gene": "TICAM2", "two-siRNA summed score (-2 to +2)": -1, "mean protection from cisplatin (shift in death) (%)": -12.3, "Call": "inactive"}

Results, from the start:
{"Gene": "GPAA1", "two-siRNA summed score (-2 to +2)": 0, "mean protection from cisplatin (shift in death) (%)": 0.1, "Call": "inactive"}
{"Gene": "TICAM2", "two-siRNA summed score (-2 to +2)": -1, "mean protection from cisplatin (shift in death) (%)": -12.3, "Call": "inactive"}
{"Gene": "KIAA1836", "two-siRNA summed score (-2 to +2)": 1, "mean protection from cisplatin (shift in death) (%)": 15.5, "Call": "inactive"}
{"Gene": "PCDHGC3", "two-siRNA summed score (-2 to +2)": 0, "mean protection from cisplatin (shift in death) (%)": -4.5, "Call": "inactive"}
{"Gene": "ARMC6", "two-siRNA summed score (-2 to +2)": 0, "mean protection from cisplatin (shift in death) (%)": -5.8, "Call": "inactive"}
{"Gene": "LOC342972", "two-siRNA summed score (-2 to +2)": 2, "mean protection from cisplatin (shift in death) (%)": 18, "Call": "active"}
{"Gene": "NFKB1", "two-siRNA summed score (-2 to +2)": 0, "mean protection from cisplatin (shift in death) (%)": 4, "Call": "inactive"}
{"Gene": "ATG5", "two-siRNA summed score (-2 to +2)": 0, "mean protection from cisplatin (shift in death) (%)": 2.3, "Call": "inactive"}
{"Gene": "CNIH4", "two-siRNA summed score (-2 to +2)": 0, "mean protection from cisplatin (shift in death) (%)": 13.8, "Call": "inactive"}
{"Gene": "LSG1", "two-siRNA summed score (-2 to +2)": 0, "mean protection from cisplatin (shift in death) (%)": -4.7, "Call": "inactive"}
{"Gene": "ENTR1", "two-siRNA summed score (-2 to +2)": 0, "mean protection from cisplatin (shift in death) (%)": 11, "Call": "inactive"}
{"Gene": "VAMP3", "two-siRNA summed score (-2 to +2)": 0, "mean protection from cisplatin (shift in death) (%)": 5.7, "Call": "inactive"}
{"Gene": "GLTP", "two-siRNA summed score (-2 to +2)": 0, "mean protection from cisplatin (shift in death) (%)": 3.6, "Call": "inactive"}
{"Gene": "BTAF1", "two-siRNA summed score (-2 to +2)": 1, "mean protection from cisplatin (shift in death) (%)": 14.6, "Call": "inactive"}
{"Gene": "BBLN", "two-siRNA summed score (-2 to +2)": 0, "mean protection from cisplatin (shift in death) (%)": -3.4, "Call": "inactive"}
{"Gene": "LOC400307", "two-siRNA summed score (-2 to +2)": 0, "mean protection from cisplatin (shift in death) (%)": 3.8, "Call": "inactive"}
{"Gene": "PLIN2", "two-siRNA summed score (-2 to +2)": -1, "mean protection from cisplatin (shift in death) (%)": -15, "Call": "inactive"}
{"Gene": "ZDHHC16", "two-siRNA summed score (-2 to +2)": -1, "mean protection from cisplatin (shift in death) (%)": 5.8, "Call": "inactive"}
{"Gene": "CHEK2", "two-siRNA summed score (-2 to +2)": 1, "mean protection from cisplatin (shift in death) (%)": 21.8, "Call": "inactive"}
{"Gene": "OAZ3", "two-siRNA summed score (-2 to +2)": 0, "mean protection from cisplatin (shift in death) (%)": -0.1, "Call": "inactive"}
{"Gene": "ANKRD46", "two-siRNA summed score (-2 to +2)": 0, "mean protection from cisplatin (shift in death) (%)": -1.2, "Call": "inactive"}
{"Gene": "F11", "two-siRNA summed score (-2 to +2)": 1, "mean protection from cisplatin (shift in death) (%)": 13.1, "Call": "inactive"}
{"Gene": "GBP7", "two-siRNA summed score (-2 to +2)": 0, "mean protection from cisplatin (shift in death) (%)": 7, "Call": "inactive"}
{"Gene": "CA12", "two-siRNA summed score (-2 to +2)": 0, "mean protection from cisplatin (shift in death) (%)": 2.3, "Call": "inactive"}
{"Gene": "ZNF524", "two-siRNA summed score (-2 to +2)": 1, "mean protection from cisplatin (shift in death) (%)": 7.2, "Call": "inactive"}
{"Gene": "PROS1", "two-siRNA summed score (-2 to +2)": 0, "mean protection from cisplatin (shift in death) (%)": -0.5, "Call": "inactive"}
{"Gene": "LOC286208", "two-siRNA summed score (-2 to +2)": 0, "mean protection from cisplatin (shift in death) (%)": 8.4, "Call": "inactive"}
{"Gene": "TMED7", "two-siRNA summed score (-2 to +2)": 0, "mean protection from cisplatin (shift in death) (%)": 6.8, "Call": "inactive"}
{"Gene": "MRPL49", "two-siRNA summed score (-2 to +2)": 0, "mean protection from cisplatin (shift in death) (%)": -7.4, "Call": "inactive"}
{"Gene": "ZAN", "two-siRNA summed score (-2 to +2)": 0, "mean protection from cisplatin (shift in death) (%)": -4.4, "Call": "inactive"}
{"Gene": "PGR", "two-siRNA summed score (-2 to +2)": 0, "mean protection from cisplatin (shift in death) (%)": 25.5, "Call": "inactive"}
